PubChem BioAssay AID504774, Drosophila RNAi Screening Center | 2011

- Test: 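Fly genes whose loss alters survival after alkylation damage to DNA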 (primary screen)
- Cell system: Drosophila Kc167 cells
- Reagents: long dsRNA against Drosophila genes, about 0.25 µg dsRNA per well
- Duration: about 6 days: 3 days knock-down, then 3 days with or without MMS
- Conditions: methyl methanesulphonate 0.004% (w/v) for 3 days after knock-down
- Detection: 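ATP-dependent luminescence as a measure of live cells in MMS-exposed wells, quantile normalised within each plate, with replicate values also given as a mean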
- Reading the numbers: mean viability with MMS and viability with MMS: higher = more surviving cells after MMS
The deposit covers about 23,000 reagents; shown is a random part of those that have a named target and a result. 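Values are quantile-normalised luminescence on an arbitrary scale; higher means more cells surviving MMS.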 Reagents against one gene are numbered here. Names joined by + are all predicted targets of the reagent. No sequences are given here.

no.	predicted target	reagent no.	mean viability with MMS	viability with MMS, replicate 1	viability with MMS, replicate 2
1	CG14421	1	3.53e6	3.86e6	4.15e6
2	cac (cacophony)	1	3.49e6	3.94e6	3.96e6
3	cac (cacophony)	2	3.51e6	4.02e6	3.86e6
4	brn (brainiac)	1	3.10e6	3.73e6	3.69e6
5	TwdlY (TweedleY)	1	3.48e6	3.97e6	3.95e6
6	GEFmeso (Guanine nucleotide exchange factor in mesoderm)	1	3.49e6	4.01e6	3.90e6
7	GEFmeso (Guanine nucleotide exchange factor in mesoderm)	2	3.52e6	3.94e6	4.03e6
8	GEFmeso (Guanine nucleotide exchange factor in mesoderm)	3	3.52e6	4.04e6	3.97e6
9	sns (sticks and stones)	1	2.96e6	3.61e6	3.61e6
10	sns (sticks and stones)	2	3.35e6	3.80e6	3.81e6
11	sns (sticks and stones)	3	1.97e6	4.19e6	
12	sns (sticks and stones)	4	3.65e6	4.08e6	4.12e6
13	sns (sticks and stones)	5	3.56e6	4.02e6	4.04e6
14	sns (sticks and stones)	6	3.29e6	3.77e6	3.73e6
15	CG13306	1	3.54e6	3.95e6	4.08e6
16	CG4332	1	3.47e6	4.12e6	3.97e6
17	CG9393	1	3.53e6	4.02e6	3.99e6
18	CG30287	1	3.34e6	3.77e6	3.85e6
19	CG15347	1	3.51e6	4.10e6	3.88e6
20	CG12985	1	3.63e6	4.07e6	4.13e6
21	obst-J (obstructor-J)	1	3.67e6	4.21e6	4.06e6
22	Usp7 (Ubiquitin-specific protease 7)	1	3.79e6	4.31e6	4.17e6
23	Usp7 (Ubiquitin-specific protease 7)	2	3.57e6	3.96e6	4.11e6
24	Acsx3 (Acyl-CoA synthetase X3)	1	3.51e6	3.99e6	3.99e6
25	Liprin-gamma	1	2.08e6	4.27e6	
26	DUBAI + Tmem18	1	3.47e6	4.00e6	3.93e6

In a second layout: entries from further up.
{"predicted target":"CG12985","reagent no.":1,"mean viability with MMS":3.63e6,"viability with MMS, replicate 1":4.07e6,"viability with MMS, replicate 2":4.13e6}
{"predicted target":"obst-J (obstructor-J)","reagent no.":1,"mean viability with MMS":3.67e6,"viability with MMS, replicate 1":4.21e6,"viability with MMS, replicate 2":4.06e6}
{"predicted target":"Usp7 (Ubiquitin-specific protease 7)","reagent no.":1,"mean viability with MMS":3.79e6,"viability with MMS, replicate 1":4.31e6,"viability with MMS, replicate 2":4.17e6}
{"predicted target":"Usp7 (Ubiquitin-specific protease 7)","reagent no.":2,"mean viability with MMS":3.57e6,"viability with MMS, replicate 1":3.96e6,"viability with MMS, replicate 2":4.11e6}
{"predicted target":"Acsx3 (Acyl-CoA synthetase X3)","reagent no.":1,"mean viability with MMS":3.51e6,"viability with MMS, replicate 1":3.99e6,"viability with MMS, replicate 2":3.99e6}

Further records follow:
no.	predicted target	reagent no.	mean viability with MMS	viability with MMS, replicate 1	viability with MMS, replicate 2
27	CCAP (Crustacean cardioactive peptide)	1	3.52e6	4.02e6	3.96e6
28	Prosap	1	3.57e6	4.00e6	4.17e6
29	Prosap	2	3.68e6	4.19e6	4.15e6
30	dtn (detonator)	1	3.62e6	4.24e6	3.97e6
31	Trmt112 (tRNA methyltransferase subunit 11-2)	1	3.57e6	4.05e6	4.04e6
32	Tsp42Ed (Tetraspanin 42Ed)	1	3.59e6	4.07e6	4.04e6
33	Zip99C (Zinc/iron regulated transporter-related protein 99C)	1	3.81e6	4.31e6	4.32e6
34	qin	1	3.48e6	4.06e6	3.85e6
35	CG4849	1	3.31e6	3.79e6	3.76e6
36	CG14151	1	3.87e6	4.82e6	3.85e6
37	CG4836	1	3.59e6	4.13e6	4.00e6
38	CG31643	1	3.55e6	4.09e6	3.97e6
39	Shark (SH2 ankyrin repeat kinase)	1	3.56e6	3.97e6	4.10e6
40	superdeath (Suppressor of ER stress-induced death)	1	1.77e6	3.95e6	3.95e6
41	Srr (Serine racemase)	1	3.65e6	4.06e6	4.14e6
42	CG14246	1	3.67e6	4.06e6	3.99e6
43	Naa30A (N(alpha)-acetyltransferase 30 A)	1	2.81e6	3.57e6	3.70e6
44	Naa30A (N(alpha)-acetyltransferase 30 A)	2	3.42e6	3.91e6	3.88e6
45	CG34166	1	1.92e6	4.10e6	4.06e6
46	CG9568	1	3.78e6	4.06e6	4.24e6
